Test results reported in publication doi:10.1101/2025.04.07.647271.
Results are given in words; binding and its absence hold for the method and conditions named. In cells and extracts the contact can be indirect. Some binding calls cover weakened binding; strength is not graded here. Where a sequence is shown, tags or fusion partners need not be part of it.

Biological target: T1, GFP-tagged Ref(2)P (Refractory to sigma P, Drosophila p62) (Drosophila) (UniProt P14199)
T1 sequence: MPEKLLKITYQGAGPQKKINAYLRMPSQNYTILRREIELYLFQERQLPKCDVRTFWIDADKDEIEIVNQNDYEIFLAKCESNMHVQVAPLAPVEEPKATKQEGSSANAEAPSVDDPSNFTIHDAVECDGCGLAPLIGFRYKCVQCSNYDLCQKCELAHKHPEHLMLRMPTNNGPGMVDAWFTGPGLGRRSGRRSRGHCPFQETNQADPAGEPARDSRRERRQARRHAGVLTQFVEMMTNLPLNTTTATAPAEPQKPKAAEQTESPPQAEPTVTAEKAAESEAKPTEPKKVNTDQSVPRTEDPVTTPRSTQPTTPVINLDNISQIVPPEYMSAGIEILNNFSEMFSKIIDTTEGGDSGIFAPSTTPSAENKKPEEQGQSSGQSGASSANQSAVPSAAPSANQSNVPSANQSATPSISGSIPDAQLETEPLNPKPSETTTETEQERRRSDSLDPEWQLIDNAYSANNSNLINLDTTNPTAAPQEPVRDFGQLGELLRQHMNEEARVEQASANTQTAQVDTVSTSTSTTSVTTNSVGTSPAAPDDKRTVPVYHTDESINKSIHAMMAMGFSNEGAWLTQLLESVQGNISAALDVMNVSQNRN
Assay: co-IP

B1: Myc-tagged dYPEL (Drosophila YPEL) (protein, UniProt Q9W2X7 1-114)
chain: MVKTFQAYLPSTNRTYSCVHCRAHLASHDELISKSFQGSQGPAYLFNSVVNVACGQTEERVLLTGLHAVADIYCECCKTPLGWKYEHAYESSQKYKEGKFIIELAHMIKENGWD
- binding: binds
